# Test results as given in PubChem BioAssay AID2685 (National Center for Advancing Translational Sciences (NCATS), 2010).
# Among all 320,000 compounds or so, about 2,100 (0.66%) were called active. Inconclusive means that the source gave no clear call. Such entries were picked first, then a sample of the others. Calls follow the shape of the dose curve; as a rule, active = well fitted inhibition curve with a large enough effect in the signal ratio, with a control signal flat (not every such curve was filed as active); inconclusive = small, poorly fitted or top-dose-only effect, or effect the other way, or a change in a side signal; inactive = flat fitted curve, though single readings scatter; the % refers to the signal ratio. Potencies of inconclusive entries are doubtful fits and often do not repeat.
# Assay: qHTS Assay for Lipid Storage Modulators in Drosophila S3 Cells
# Details: BODIPY lipid droplet fluorescence, 18-24 h, cells fed with added oleic acid; lipid storage change, negative = inhibition: at 46.1 µM (top of the series) unless noted
# In short: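 Drosophila S3 cells loaded with oleic acid (400 uM, as added) and compounds at several concentrations; lipid droplets imaged by 488-nm laser-scanning cytometry, 500–530 nm intensity and object ratio to cell channel. Percent activity normalized to 20 uM Triacsin C.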
# % is scaled to controls: 0 for no effect and ±100 for the full control effect; potency is read from the fitted curve at half-maximal effect.
Structure (SMILES),Potency,"lipid storage change, negative = inhibition"
Cc1cc(C)n2nc(C(=O)OCC(=O)N3CCC3)nc2n1,"inconclusive: 0.0146 µM [falling, full curve, poor fit]",–
Cc1ccc(S(=O)(=O)Nc2ccc(C(OC(=O)c3ccccc3[N+](=O)[O-])(C(F)(F)F)C(F)(F)F)cc2)cc1,"inconclusive: 13 µM [falling, partial curve]",–
CC(C)N1CCCC(CNC(=O)CCc2nnc(CCCCc3ccccc3)o2)C1 (stereo not given),–,inconclusive: -15.5%
CCc1ccc(C2c3[nH]c4ccccc4c3CCN2C(=O)c2cc[n+]([O-])cc2)cc1 (stereo not given),–,inconclusive: -27.3%
COC(=O)C1CC(=O)N(c2ccc(OCc3ccccc3Cl)cc2)C1 (stereo not given),"inconclusive: 29.1 µM [activator, single point]",–
Cc1ccc(C)c(S(=O)(=O)N2CCN(C(=O)CCC(=O)NCc3ccc(Cl)cc3)CC2)c1,"inconclusive: 29.1 µM [activator, single point]",–
CCc1nnc(NC(=O)CCC(=O)O)s1,–,inconclusive: 19.1%
CCOC(=O)C1CN(S(=O)(=O)c2ccc(C)cc2)c2cc(S(=O)(=O)CC)ccc2O1 (stereo not given),–,inconclusive: -18.9%
Cc1cc(NC(=O)C(C)SCC(=O)OCc2c(Cl)cccc2Cl)no1 (stereo not given),"inconclusive: 13 µM [activator, partial curve, poor fit]",–
CCn1cc(S(=O)(=O)Nc2ccccc2C(F)(F)F)cn1,–,inconclusive: -19%
O=C(COc1nsnc1N1CCOCC1)N1CCOCC1,–,inactive: -15%
COc1cc(C(C)=O)ccc1OCc1nnc(-c2ccccc2Br)o1,"inconclusive: 6.51 µM [falling, partial curve, poor fit]",–
COc1ccc(Cl)cc1-c1nc(SCC(=O)NCCN2C(=O)CSC2=O)n[nH]1,–,inconclusive: -5.62%
CN(CC(=O)Nc1cccc(F)c1)CC(=O)Nc1ccccc1Oc1ccccc1,–,inconclusive: 359%
Cc1ccc(NC(=O)CN2C(=O)S/C(=C/c3ccncc3)C2=O)cc1,–,inconclusive: -55.1%
CCC(=O)N1CCc2cc(Br)cc(S(=O)(=O)CCC(=O)NCCOC)c21,"inconclusive: 16.4 µM [rising, partial curve]",–
O=C(Nc1ccc(F)cc1)c1cccc(C(=O)Nc2ccc(F)cc2)c1,active: 0.231 µM,–
COc1ccccc1N1CC(C(=O)Nc2ccc3c(c2)OCO3)CC1=O (stereo not given),–,inconclusive: 6.12%
COc1ccc(OC)c(NS(=O)(=O)c2ccc(-c3coc(C)n3)cc2)c1,"inconclusive: 0.146 µM [activator, full curve]",–
COc1ccc(N2CC(C(=O)Nc3ccc(S(=O)(=O)Nc4nc(C)cc(C)n4)cc3)CC2=O)cc1 (stereo not given),"inconclusive: 1.16 µM [falling, full curve]",–

# Part of the list above, with bars between the fields.
Structure (SMILES) | Potency | lipid storage change, negative = inhibition
COC(=O)C1CC(=O)N(c2ccc(OCc3ccccc3Cl)cc2)C1 (stereo not given) | inconclusive: 29.1 µM [activator, single point] | –
Cc1ccc(C)c(S(=O)(=O)N2CCN(C(=O)CCC(=O)NCc3ccc(Cl)cc3)CC2)c1 | inconclusive: 29.1 µM [activator, single point] | –
CCc1nnc(NC(=O)CCC(=O)O)s1 | – | inconclusive: 19.1%
CCOC(=O)C1CN(S(=O)(=O)c2ccc(C)cc2)c2cc(S(=O)(=O)CC)ccc2O1 (stereo not given) | – | inconclusive: -18.9%
Cc1cc(NC(=O)C(C)SCC(=O)OCc2c(Cl)cccc2Cl)no1 (stereo not given) | inconclusive: 13 µM [activator, partial curve, poor fit] | –
